Measured values taken from publication PMC9631887 (ACS Omega, 2022).

How the values were obtained:
[1] = PAMPA-GIT
[2] = PAMPA-BBB

With `CC(C)NCC(O)COc1ccc(CC(N)=O)cc1` (centres unmarked) [atenolol] the experimental fraction absorption [1] was 15.81% and the classification [2] was “BBB– (Pe values <1.57 were classified as nonpermeable (BBB−))”.
